Test results: the supplement of paper PMC4604168 (melanoma cell lines)
The list shows a part of the results. Repeats are few or missing, and single values can be far off.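 Imaging used 1,536-well plates; nuclei positive for cleaved PARP by antibody were divided by total DNA-stained nuclei to yield the apoptosis fraction. Doses for screening kept most cells viable, and cell lines differ markedly in resting and induced cleaved-PARP levels.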

Legend:
Test in all cases: cleaved PARP positive nuclei fraction relative to DMSO control; melanoma cells; higher = more apoptosis
Details in all cases: library dose: low library concentration; 72 h
MZ2-MEL = tested on: MZ2-MEL
MeWo = tested on: MeWo
RPMI7951 = tested on: RPMI7951
RVH-421 = tested on: RVH-421
SkMel28 = tested on: SkMel28
SkMel2 = tested on: SkMel2
SkMel30 = tested on: SkMel30
SkMel5 = tested on: SkMel5
UACC257 = tested on: UACC257
UACC62 = tested on: UACC62

Compound	cleaved PARP positive nuclei fraction (MZ2-MEL) [%]	cleaved PARP positive nuclei fraction (MeWo) [%]	cleaved PARP positive nuclei fraction (RPMI7951) [%]	cleaved PARP positive nuclei fraction (RVH-421) [%]	cleaved PARP positive nuclei fraction (SkMel28) [%]	cleaved PARP positive nuclei fraction (SkMel2) [%]	cleaved PARP positive nuclei fraction (SkMel30) [%]	cleaved PARP positive nuclei fraction (SkMel5) [%]	cleaved PARP positive nuclei fraction (UACC257) [%]	cleaved PARP positive nuclei fraction (UACC62) [%]
NC1(c2ccc(-c3nc4ccn5c(=O)[nH]nc5c4cc3-c3ccccc3)cc2)CCC1 + N#Cc1c(O)c2c(-c3ccc(-c4ccccc4O)cc3)csc2[nH]c1=O [A769662] (first compound 0.4 µM, partner dose 2 µM)	141	72.5	118	116	253	56.5	114	79	103	155
CC(=O)O[C@@]12CO[C@@H]1C[C@H](O)[C@@]1(C)C(=O)[C@H](O)C3=C(C)[C@@H](OC(=O)[C@H](O)[C@@H](NC(=O)OC(C)(C)C)c4ccccc4)C[C@@](O)([C@@H](OC(=O)c4ccccc4)[C@H]21)C3(C)C [Docetaxel] + CCc1ccc(CCOc2ccc(CC3SC(=O)NC3=O)cc2)nc1 [pioglitazone] (first compound 0.0001 µM, partner dose 2 µM)	552	734	339	176	257	618	213	450	202	2000
C[C@@H](N)c1ccc(C(=O)Nc2ccnc3[nH]ccc23)cc1 + O=c1cc(-c2cccc3c2Sc2ccccc2S3)oc(N2CCOCC2)c1 [KU55933] (first compound 0.4 µM, partner dose 1 µM)	177	156	89.7	182	219	59	64.1	82.4	185	206
NC1(c2ccc(-c3nc4ccn5c(=O)[nH]nc5c4cc3-c3ccccc3)cc2)CCC1 + COc1ccc(COc2ccc(Cc3cnc(N)nc3N)cc2OC)cc1 [GW2580] (first compound 0.4 µM, partner dose 1 µM)	102	48.2	119	44.4	363	72	94.9	88.9	599	189
CS(=O)(=O)c1ccc(C(=O)Nc2ccc(Cl)c(-c3ccccn3)c2)c(Cl)c1 [vismodegib] + COc1cc(Nc2ncc(F)c(Nc3ccc4c(n3)NC(=O)C(C)(C)O4)n2)cc(OC)c1OC [Tamatinib] (first compound 1 µM, partner dose 0.4 µM)	177	120	42.3	82.5	124	206	70.5	37.8	223	57.4
CS(=O)(=O)c1ccc(C(=O)Nc2ccc(Cl)c(-c3ccccn3)c2)c(Cl)c1 [vismodegib] + c1cc(-c2cnn3cc(-c4ccc(OCCN5CCCCC5)cc4)cnc23)ccn1 [Dorsomorphin] (first compound 1 µM, partner dose 0.4 µM)	66	135	69.8	25.1	151	102	27.9	96.2	112	65.7
CC1(C)CCC(c2ccc(Cl)cc2)=C(CN2CCN(c3ccc(C(=O)NS(=O)(=O)c4ccc(N[C@H](CCN5CCOCC5)CSc5ccccc5)c(S(=O)(=O)C(F)(F)F)c4)cc3)CC2)C1 + Cn1cncc1[C@@](N)(c1ccc(Cl)cc1)c1ccc2c(c1)c(-c1cccc(Cl)c1)cc(=O)n2C [tipifarnib] (first compound 0.4 µM, partner dose 0.01 µM)	466	133	74.8	113	152	251	122	263	249	78.4
CS(=O)(=O)c1ccc(C(=O)Nc2ccc(Cl)c(-c3ccccn3)c2)c(Cl)c1 [vismodegib] + O=S(=O)(c1ccccc1)N(CC(F)(F)F)c1ccc(C(O)(C(F)(F)F)C(F)(F)F)cc1 [T0901317] (first compound 1 µM, partner dose 1.4 µM)	88.1	65.8	20.5	106	196	70.7	16.7	79.1	59.1	73.1
CC(=O)O[C@@]12CO[C@@H]1C[C@H](O)[C@@]1(C)C(=O)[C@H](O)C3=C(C)[C@@H](OC(=O)[C@H](O)[C@@H](NC(=O)OC(C)(C)C)c4ccccc4)C[C@@](O)([C@@H](OC(=O)c4ccccc4)[C@H]21)C3(C)C [Docetaxel] + O=C(Nc1ccccc1)c1cc([N+](=O)[O-])ccc1Cl [GW9662] (first compound 0.0001 µM, partner dose 2 µM)	400	266	95.3	149	679	704	149	179	636	845
NC1(c2ccc(-c3nc4ccn5c(=O)[nH]nc5c4cc3-c3ccccc3)cc2)CCC1 + COc1ccc2c(c1)CCC1C2CCC2(C)C(NCCCCCCN3C(=O)C=CC3=O)CCC12 [U73122] (first compound 0.4 µM, partner dose 0.4 µM)	147	19.4	45.5	124	151	63.4	242	80.4	34	178
NC(=O)c1ccc(N(C(N)=O)c2c(F)cccc2F)nc1-c1ccc(F)cc1F + COc1cc2ncnc(Nc3ccc(Oc4ccccc4)cc3)c2cc1OC [SrcI1] (first compound 0.4 µM, partner dose 2 µM)	212	122	46.7	69	393	53.9	91.2	75.2	127	187
CC1(C)CCC(c2ccc(Cl)cc2)=C(CN2CCN(c3ccc(C(=O)NS(=O)(=O)c4ccc(N[C@H](CCN5CCOCC5)CSc5ccccc5)c(S(=O)(=O)C(F)(F)F)c4)cc3)CC2)C1 + NCC(=O)Nc1ccc(-n2nc(C(F)(F)F)cc2-c2ccc3c(ccc4ccccc43)c2)cc1 [OSU03012] (first compound 0.4 µM, partner dose 1 µM)	174	1120	66.4	140	248	548	386	842	450	86.7
Cn1cnc2c(F)c(Nc3ccc(Br)cc3Cl)c(C(=O)NOCCO)cc21 [selumetinib] + O=C(Nc1ccccc1)c1cc([N+](=O)[O-])ccc1Cl [GW9662] (first compound 0.015 µM, partner dose 2 µM)	267	102	38.8	129	119	276	123	74.3	148	322
CS(=O)(=O)c1ccc(C(=O)Nc2ccc(Cl)c(-c3ccccn3)c2)c(Cl)c1 [vismodegib] + COc1cc2c(Oc3ccc4[nH]c(C)cc4c3F)ncnc2cc1OCCCN1CCCC1 [cediranib] (first compound 1 µM, partner dose 0.4 µM)	38	93	52.2	54.9	40	122	290	137	79.8	103
CCCCCCCCc1ccc(CCC(N)(CO)CO)cc1 [fingolimod] + COC(=O)c1sccc1S(=O)(=O)Nc1ccc(Nc2ccccc2)cc1OC [GSK0660] (first compound 2 µM, partner dose 1 µM)	75.3	97.7	185	163	122	57.8	29.7	73.2	104	267
CC1(C)CCC(c2ccc(Cl)cc2)=C(CN2CCN(c3ccc(C(=O)NS(=O)(=O)c4ccc(N[C@H](CCN5CCOCC5)CSc5ccccc5)c(S(=O)(=O)C(F)(F)F)c4)cc3)CC2)C1 + COC(=O)c1sccc1S(=O)(=O)Nc1ccc(Nc2ccccc2)cc1OC [GSK0660] (first compound 0.4 µM, partner dose 1 µM)	276	286	392	111	146	111	50.8	120	306	93.9
Cn1cnc2c(F)c(Nc3ccc(Br)cc3Cl)c(C(=O)NOCCO)cc21 [selumetinib] + NCC(=O)Nc1ccc(-n2nc(C(F)(F)F)cc2-c2ccc3c(ccc4ccccc43)c2)cc1 [OSU03012] (first compound 0.015 µM, partner dose 1 µM)	336	212	141	151	33.7	147	250	96.9	148	115
CS(=O)(=O)c1ccc(C(=O)Nc2ccc(Cl)c(-c3ccccn3)c2)c(Cl)c1 [vismodegib] + O=C(CCCCCCC(=O)Nc1ccccc1)NO [vorinostat] (first compound 1 µM, partner dose 0.08 µM)	112	50.2	39.3	82.4	50.6	133	154	232	153	169
CS(=O)(=O)c1ccc(C(=O)Nc2ccc(Cl)c(-c3ccccn3)c2)c(Cl)c1 [vismodegib] + CN(C)S(=O)(=O)c1ccc2c(c1)/C(=C/c1cc3c([nH]1)CCCC3)C(=O)N2 [SU6656] (first compound 1 µM, partner dose 0.4 µM)	48.5	231	90.5	39	31.9	115	224	130	112	174
C[C@@H](N)c1ccc(C(=O)Nc2ccnc3[nH]ccc23)cc1 + CC(C)(C)c1cnc(CSc2cnc(NC(=O)C3CCNCC3)s2)o1 [SNS-032] (first compound 0.4 µM, partner dose 0.01 µM)	387	164	99.5	152	220	139	69.3	23.9	210	210
CC(=O)O[C@@]12CO[C@@H]1C[C@H](O)[C@@]1(C)C(=O)[C@H](O)C3=C(C)[C@@H](OC(=O)[C@H](O)[C@@H](NC(=O)OC(C)(C)C)c4ccccc4)C[C@@](O)([C@@H](OC(=O)c4ccccc4)[C@H]21)C3(C)C [Docetaxel] + C=CCn1c(=O)c2cnc(Nc3ccc(N4CCN(C)CC4)cc3)nc2n1-c1cccc(C(C)(C)O)n1 [MK1775] (first compound 0.0001 µM, partner dose 0.02 µM)	873	219	330	112	161	477	200	107	287	238

Given bar-delimited: entries from further up
Compound | cleaved PARP positive nuclei fraction (MZ2-MEL) [%] | cleaved PARP positive nuclei fraction (MeWo) [%] | cleaved PARP positive nuclei fraction (RPMI7951) [%] | cleaved PARP positive nuclei fraction (RVH-421) [%] | cleaved PARP positive nuclei fraction (SkMel28) [%] | cleaved PARP positive nuclei fraction (SkMel2) [%] | cleaved PARP positive nuclei fraction (SkMel30) [%] | cleaved PARP positive nuclei fraction (SkMel5) [%] | cleaved PARP positive nuclei fraction (UACC257) [%] | cleaved PARP positive nuclei fraction (UACC62) [%]
CC1(C)CCC(c2ccc(Cl)cc2)=C(CN2CCN(c3ccc(C(=O)NS(=O)(=O)c4ccc(N[C@H](CCN5CCOCC5)CSc5ccccc5)c(S(=O)(=O)C(F)(F)F)c4)cc3)CC2)C1 + Cn1cncc1[C@@](N)(c1ccc(Cl)cc1)c1ccc2c(c1)c(-c1cccc(Cl)c1)cc(=O)n2C [tipifarnib] (first compound 0.4 µM, partner dose 0.01 µM) | 466 | 133 | 74.8 | 113 | 152 | 251 | 122 | 263 | 249 | 78.4
CS(=O)(=O)c1ccc(C(=O)Nc2ccc(Cl)c(-c3ccccn3)c2)c(Cl)c1 [vismodegib] + O=S(=O)(c1ccccc1)N(CC(F)(F)F)c1ccc(C(O)(C(F)(F)F)C(F)(F)F)cc1 [T0901317] (first compound 1 µM, partner dose 1.4 µM) | 88.1 | 65.8 | 20.5 | 106 | 196 | 70.7 | 16.7 | 79.1 | 59.1 | 73.1
